Experimental data from patent US20250213183A1, “SYSTEM AND METHOD OF MONITORING NOCICEPTION AND ANALGESIA DURING ADMINISTRATION OF GENERAL ANESTHESIA” (The General Hospital Corporation, priority 2022, published 2025).

Conditions: single subject, forehead sensor, patient remains unconscious; FIG. 6C

## CCN(CC)CC(=O)Nc1c(C)cccc1C [lidocaine]
  EDA SCR after lidocaine infusion is stopped, highest levels: approximately 35 micro-Siemens
